The values below come from patent US20070148201A1.

No constants are given. Whether binding was seen depends on the method and setting.

Sequences and labels used below:
B1: BBP mutein Fer-N22 (designed binder)
chain: DVYHDGACPEVKPVDNFDWSQYHGKWWEVAKYPNGGESPGKCGWAEYTPEGKSVKVSNYHVIKKRERFIEGTAYPVGDSKIGKICHSLTWSGLTKENVFNVLSTDNKNYIIGYYCKYKERKKGHGDFVWVLSRSMVLTGEAKTAVENYLIGSPVVDSQKLVYSDFSEAACKVNN
B2: BBP mutein Fer-O20 (designed binder)
chain: DVYHDGACPEVKPVDNFDWSQYHGKWWEVAKCPSGKGRAGKCGWAEFTPEGKSVKVSRYDVIPAPELFMEGTAYPVGDPKIGKIYHSRTNKGLTKKTVFNVLSTDNKNYIIGYSCKYGEDQKGHKDHVWVLSRSMVLTGEAKTAVENYLIGSPVVDSQKLVYSDFSEAACKVNN
B3: BBP mutein Fer-N21 (designed binder)
chain: DVYHDGACPEVKPVDNFDWSQYHGKWWEVAKYPSNRGSKGKCGWAEYTPEGKSVKVSRYDVIPRLEAFMEGTAYPVGDSKIGKIYHSRTSKGKTKKTVFNVLSTDNKNYIIGYSCIYNERYKGHYDHVWVLSRSMVLTGEAKTAVENYLIGSPVVDSQKLVYSDFSEAACKVNN
B4: BBP mutein Fer-I21 (designed binder)
chain: DVYHDGACPEVKPVDNFDWSQYHGKWWEVAKYPNQKEKWGKCGWAEYTPEGKSVKVSNYHVIKRPERFIEGTAYPVGDSKIGKIYHSLTRLGKTKENVFNVLSTDNKNYIIGYYCLYPEGWKGHKDFVWVLSRSMVLTGEAKTAVENYLIGSPVVDSQKLVYSDFSEAACKVNN
B5: BBP mutein Fer-P4 (designed binder)
chain: DVYHDGACPEVKPVDNFDWSQYHGKWWEVAKYPSKGGEKGKCGWAEYTPEGKSVKVSRYDVILSSEPFMEGTAYPVGDSKIGKIYHSRTKKGETKKTVFNVLSTDNKNYIIGYSCGYCECRKGHADHVWVLSRSMVLTGEAKTAVENYLIGSPVVDSQKLVYSDFSEAACKVNN

The first assay has as its target transferrin. The assay is described as follows: ELISA, transferrin coated on plate, anti-T7-HRP detection.
On to B1, for which the binding result is listed as “no binding (tested: dilution series starting from 1000 nM)”.

For B2, the binding result is given as “no binding (tested: dilution series starting from 1000 nM)”.

For the molecule B3, the binding entry is given as “no binding (tested: dilution series starting from 1000 nM)”.

As to B4, the binding result is reported as “no binding (tested: dilution series starting from 1000 nM)”.

In the case of B5, the binding result was “no binding (tested: dilution series starting from 1000 nM)”.

Another assay deals with transferrin. The assay is described as follows: ELISA: transferrin coated on the plate as control, BBP mutein titrated 0-1000 nM, detected with anti-T7 antibody-HRP, fluorescence (Example 12).
For the molecule B5, the binding result is “no binding (tested: 1000 nM)”.
